# PubChem BioAssay AID2685 (National Center for Advancing Translational Sciences (NCATS), 2010)
# The other results are listed elsewhere or left out. These are further read-outs of the screen, such as a control signal, another cell line or another target. No call is given for them. The list favours compounds with an active or inconclusive main result. Potencies come from curve fits of mixed quality, noted in brackets.
# Experiment: qHTS Assay for Lipid Storage Modulators in Drosophila S3 Cells;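 on cell number change: cells counted by Cell Tracker Red CMTPX staining in the red channel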
# Conditions: BODIPY lipid droplet fluorescence, 18-24 h; for cell number change: measured here: cell count max response, cells fed with added oleic acid
# Procedure, shortened: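 Drosophila S3 cells loaded with oleic acid (400 uM, as added) and compounds at several concentrations; lipid droplets imaged by 488-nm laser-scanning cytometry, 500–530 nm intensity and object ratio to cell channel. Percent activity normalized to 20 uM Triacsin C.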
# [1] = measured here: lipid fluorescence (Fed channel) AC50, cells fed with added oleic acid
# [2] = measured here: cell number channel AC50, cells fed with added oleic acid
Structure (SMILES),cell number change [%],AC50 [1],AC50 [2]
CC1(C)Cc2c(sc(NC(=O)C(=O)NCC3CCCO3)c2C(=O)O)CO1 (stereo unspecified),8.85,"6.51 µM [falling, single point]",–
Cc1ccc(/C(O)=C2\C(=O)C(=O)N(C)C2c2ccc(Br)cc2)cc1 (stereo unspecified),-4.99,"29.1 µM [rising, single point]",–
O=C(C[n+]1ccccc1)N/N=C/c1cccs1,-7.31,"0.291 µM [falling, full curve, poor fit]","0.13 µM [falling, full curve, poor fit]"
COc1ccc(N(CC(=O)Nc2c(C)n(C)n(-c3ccccc3)c2=O)S(=O)(=O)c2ccc(C)cc2)cc1OC,17.1,–,–
CCCNC(=O)c1onc(CSc2ccc(F)cc2)c1C(=O)NCC1CC1,15.7,"4.61 µM [rising, full curve, poor fit]",–
NC(=O)CCC(NS(=O)(=O)c1ccc(Cl)cc1)C(=O)NCc1ccc(Cl)cc1 (stereo unspecified),10.6,"3.26 µM [rising, partial curve]",–
COc1ccc(NC(=O)N2CCCc3ccccc32)cc1OC,-4.46,"29.1 µM [rising, single point]",–
COCC(C)NC(=O)Cn1c(SCc2ccccc2)nc2ccccc21 (stereo unspecified),19.2,"0.411 µM [rising, partial curve]",–
O=C(NC1CCCCC1)N1CCN(C(c2ccccc2)c2ccccc2)CC1,0.892,–,–
CC(C)(C)c1ccc(NC(=O)COC(=O)C2CCCC2)cc1,-2.06,"0.58 µM [rising, full curve]",–
O=C(Nc1ccc(Cl)cc1)NC1CCCc2ccccc21 (stereo unspecified),–,"11.6 µM [falling, partial curve, poor fit]",–
CC(C)CCNC(=O)CSc1nc2ccsc2c(=O)n1NC(=O)c1ccccc1,10.9,"2.06 µM [rising, partial curve]","2.06 µM [rising, partial curve, poor fit]"
O=[N+]([O-])c1cc(C(F)(F)F)ccc1NCCc1c[nH]c2ccccc12,-58.6,"14.6 µM [falling, partial curve]","11.6 µM [falling, partial curve]"
COc1ccc(NC(=O)c2ccc3nc[nH]c3c2)c(OC)c1,70.4,–,"11.6 µM [rising, partial curve]"
O=C(NCc1ccncc1)c1ccccc1Nc1ccc(SC(F)F)cc1,1.32,–,–
CCOc1cccc(C(=O)NC(=S)Nc2cccc(C)c2)c1,36.1,"10.3 µM [rising, partial curve]","9.2 µM [rising, partial curve]"
COc1ccc(-c2nc3ccccc3c(=O)n2N)cc1,-21.5,"3.66 µM [rising, partial curve, poor fit]","0.291 µM [rising, full curve, poor fit]"
Fc1cccc(Nc2ncnc3c2cnn3-c2ccccc2)c1,-26.5,–,–
COc1ccc(C)cc1NC(=O)C(OC(=O)Cn1cnc2c1c(=O)n(C)c(=O)n2C)c1ccccc1 (stereo unspecified),44.4,"25.9 µM [rising, single point]","20.6 µM [rising, single point]"
COc1cccc(-c2csc(NC(=O)C3CC3)n2)c1,18.2,"2.31 µM [rising, partial curve, poor fit]","3.26 µM [rising, partial curve, poor fit]"

Structure (SMILES),cell number change [%],AC50 [1],AC50 [2]
O=C1OCCC1Sc1nnc(-c2cccc(Br)c2)o1 (stereo unspecified),–,"23.1 µM [falling, partial curve]",–
COc1ccc(N(C(=O)c2snc(C(N)=O)c2N)C(C(=O)NC2CCCCC2)c2ccc(C)o2)cc1 (stereo unspecified),11.8,"25.1 µM [falling, single point]",–
COc1ccc([C@H]2CC(=O)C=C(c3ccc(C(F)(F)F)c(C(F)(F)F)c3)C2)cc1OC,-48.9,"29.1 µM [falling, single point]","29.1 µM [falling, single point]"
COCCn1c(-c2ccc(OC)cc2)cnc1SCC(=O)Nc1ccc(OC)cc1OC,4.98,–,–
CN(C1CCCCC1)S(=O)(=O)c1ccc(NC(=O)Cn2nc(-c3ccc(F)cc3)ccc2=O)cc1,34.3,"18.4 µM [rising, partial curve]","5.17 µM [rising, single point]"
Cc1ccnc(NC(=O)c2ccc3c(c2)C(=O)N(CCC(C)C)C3=O)c1,-24,–,–
COc1ccccc1N1CCN(c2nc(-c3ccccc3)cc(C(F)(F)F)n2)CC1,-3.12,–,–
O=C(COC(=O)CCc1c[nH]c2ccccc12)Nc1ccccc1C(F)(F)F,-17.5,"6.51 µM [rising, single point]",–
COc1ccc(-n2c(C)nc3cc(C(=O)O)ccc32)cc1,10.3,"23.1 µM [falling, partial curve]",–
O=C(NC(=S)Nc1ccc(F)cc1)c1ccc2c(c1)OCCO2,0.923,"0.731 µM [falling, full curve]",–
Cc1ccc(Nc2nc(C(=O)N3CCC(C(=O)N4CCN(C)CC4)CC3)cs2)cc1,73,"1.3 µM [rising, single point]","18.4 µM [rising, single point]"
CN(c1ccc(F)cc1)S(=O)(=O)c1ccc(Cl)c(C(=O)OCC(=O)NCc2ccco2)c1,34.9,"0.82 µM [rising, full curve]","0.116 µM [rising, full curve]"
Cc1cc(-c2cn3ccccc3n2)c(C)n1-c1ccccc1,-131,–,–
O=C1CCCN1c1ccc(N2CCCC2=O)cc1,21.1,–,–
COc1cc(/C=N/NC(=O)c2cccs2)ccc1OCc1ccccc1,-47.1,"0.411 µM [falling, partial curve]","16.4 µM [falling, partial curve, poor fit]"
CC(C)C(C)(C#N)NC(=O)CSc1nnc(-c2ccncc2)n1Cc1ccccc1 (stereo unspecified),57.2,"16.4 µM [rising, partial curve]","29.1 µM [rising, single point]"
CC(=O)N1CSCC1C(=O)N1CCN(c2ccc(N3CCOCC3)nn2)CC1 (stereo unspecified),5.07,"0.00461 µM [rising, full curve, poor fit]",–
CCOC(=O)C1CCCN(C(=O)c2cc(-c3ccc(F)cc3)nc3ccccc23)C1 (stereo unspecified),41.4,–,"29.1 µM [rising, single point]"
CC(C)(C)n1nnnc1C(c1cccs1)N1CCN(Cc2ccccc2)CC1 (stereo unspecified),9.22,–,–
Cc1cc(C)n(-c2nc3c(c(=O)[nH]c(=O)n3C)n2Cc2ccccc2)n1,16.3,"0.326 µM [rising, full curve]","0.231 µM [rising, full curve, poor fit]"

# Quoted from the listing:
# `COc1ccc(N(C(=O)c2snc(C(N)=O)c2N)C(C(=O)NC2CCCCC2)c2ccc(C)o2)cc1` (stereo unspecified) – AC50 [1]: 25.1 µM [falling, single point]
# `Cc1cc(C)n(-c2nc3c(c(=O)[nH]c(=O)n3C)n2Cc2ccccc2)n1` – cell number change [%]: 16.3
# `O=C(C[n+]1ccccc1)N/N=C/c1cccs1` – AC50 [2]: 0.13 µM [falling, full curve, poor fit]
# `O=[N+]([O-])c1cc(C(F)(F)F)ccc1NCCc1c[nH]c2ccccc12` – AC50 [1]: 14.6 µM [falling, partial curve]
# `O=C(NC1CCCCC1)N1CCN(C(c2ccccc2)c2ccccc2)CC1` – cell number change [%]: 0.892

# The results go on.

Structure (SMILES),cell number change [%],AC50 [1],AC50 [2]
c1ccc(C(c2ccccc2)N2CCN(Cc3nnnn3C3CCCC3)CC2)cc1,53.9,–,"8.2 µM [rising, partial curve]"
Clc1ccc(-c2nnc(C3CCCCC3)o2)cc1,-7.28,–,–
O=C(CNCc1ccc(F)cc1)Nc1ccccc1-c1ccccc1,-0.718,"6.51 µM [rising, partial curve, poor fit]","6.51 µM [rising, single point]"
COC(=O)c1c(C)[nH]c(C(=O)COc2ccc3ccc(=O)oc3c2)c1C,-43.4,"29.1 µM [falling, single point]","29.1 µM [falling, single point]"
O=C(NCc1cccs1)c1cc(-c2ccccc2)on1,17,–,–
COc1ccc2c([N+](=O)[O-])c(N3CCCC3)[nH]c2c1,7.04,"29.1 µM [rising, single point]",–
O=C(Nc1ccc(Cl)cc1)N(CCCN1CCOCC1)Cc1cccs1,3.13,"7.31 µM [rising, partial curve, poor fit]",–
COc1cccc(/C=N/c2nc3ccccc3n2C)c1O,12.9,–,–
CCCC/C(C)=N\NC(=O)CNS(=O)(=O)c1ccc([N+](=O)[O-])cc1,-37.2,"6.51 µM [falling, single point]","0.82 µM [falling, full curve, poor fit]"
CCOc1ccccc1/C=C/c1cc(C(=O)O)c2ccccc2n1,21.8,–,–
COc1ccc(N2CCN(Cc3cc(=O)oc4c3ccc3ccccc34)CC2)cc1,-17.2,–,–
COc1ccc(Nc2cc(C)nc3c(C)cccc23)cc1OC,-13.5,–,–
CCOC(=O)c1cccc(NC(=O)CCc2nnc3ccc(N4CCOCC4)nn23)c1,-18.4,–,–
CCOC(=O)C1CCCN(C2CC(=O)N(c3ccccc3)C2=O)C1 (stereo unspecified),-31.8,–,–
COc1ccc2nc(-c3ccco3)c(-c3ccco3)nc2c1,–,"0.13 µM [falling, full curve, poor fit]",–
Cc1ccc2sc(NNC(=O)c3cc(=O)c4ccccc4o3)nc2c1C,–,"3.66 µM [falling, partial curve, poor fit]",–
c1ccc2c(CCNc3ncnc4nc[nH]c34)c[nH]c2c1,-26.4,"16.4 µM [falling, single point]",–
Cc1cc(C)cc(OCCNC(=O)C(C)N2C(=O)c3ccccc3C2=O)c1 (stereo unspecified),16.2,"6.51 µM [falling, single point]",–
O=C(CN(Cc1ccc(F)cc1)C(=O)CCC(=O)Nc1ccccn1)NCc1ccc(F)cc1,27.1,"0.116 µM [falling, single point]",–
O=C(Nc1cc(=O)[nH]c2ncnn12)c1ccccc1F,-45.6,"4.11 µM [falling, single point]","4.11 µM [falling, single point]"
